According to the supplement of paper PMC5949888:
Most values lie at the floor of the assay. Slopes are relative: functional sequences can read slightly below zero.

Each substance was assayed on Saccharomyces cerevisiae PS128 hsf1 delta, HSF1(1-493) fusion (assay: growth estimate (transactivation domain function in HSF1 fusion, heat-shock survival) (a.u. (slope of normalised read count over time)); higher = stronger growth at 37°C, i.e. more transactivation activity). Conditions: library: random library.
With DSRDSGYSRQSVGQFGWDRS the growth estimate was < -0.25.
For VAFSSALYRCRVG, the growth estimate was < -0.25.
For NDLR, the growth estimate was < -0.25.
With WNCGRFIRFGARVAVVRAR the growth estimate was < -0.25.
In the case of HQWKEPGECLQ, the growth estimate is reported as < -0.25.
For IARIGVSQNILEPPRC, the growth estimate was < -0.25.
For GRGGASSTIFAAIKQY, the growth estimate was < -0.25.
LYVTDKEC was tested, and the growth estimate was < -0.25.
For TTASLPPGCGVCIS, the growth estimate was < -0.25.
HSSAQGEIYLGEVCNGGGPC was tested, and the growth estimate was < -0.25.
KVSNYLNVARNRG was tested, and the growth estimate was < -0.25.
With EECKEDIIRPFQLYTGATYW the growth estimate was < -0.25.
RMGASPQRVFIENTAKPVKQ was tested, and the growth estimate was < -0.25.
In the case of ISSHWLEKLGQLWP, the growth estimate is reported as < -0.25.
In the case of FRQPYGCFQSTGRSSPGSIG, the growth estimate is reported as < -0.25.
With SQVFPDQAAPGHLGYPNWWL the growth estimate was -0.109.
In the case of SQATWPISLLRDCDTDCTVL, the growth estimate is reported as < -0.25.
IREPLIQWAFPSEGPSFWRP was tested, and the growth estimate was -0.246.
For SCGLYLG, the growth estimate was < -0.25.
Work on SFSH yielded a growth estimate of -0.132.
In the case of SRGDMMFNRSGWCHQA, the growth estimate is reported as < -0.25.
With VTRTNLRRQGLDATGCTAIS the growth estimate was < -0.25.
With SIGLGALMITAIGSGLYRCV the growth estimate was < -0.25.
In the case of SDVPPCSRTHVSTSPQHATS, the growth estimate is reported as < -0.25.
For LNGQRLVSAENWD, the growth estimate was < -0.25.
In the case of VEWS, the growth estimate is reported as < -0.25.
QQHRVVERSEQLYEWEILRF gave a growth estimate of -0.173.
QVHIFW was tested, and the growth estimate was < -0.25.
PWHLYEGEMAPLLAPSEFVC gave a growth estimate of -0.246.
FSCSSGPWSLLCTFSTCCHT was tested, and the growth estimate was < -0.25.
In the case of YRPVEEAFLSGNGPWPQHNR, the growth estimate is reported as < -0.25.
For YCTGPIYASLVFWLLGQPET, the growth estimate was < -0.25.
With EQNSTVMG the growth estimate was < -0.25.
AIGTDRLCALAREVWLRAIE was tested, and the growth estimate was < -0.25.
With ISSRVPSGANSRQ the growth estimate was < -0.25.
For SVFVHLLPVMPTWSR, the growth estimate was < -0.25.
For VLNCIMSNHLNAHFRVDGVD, the growth estimate was < -0.25.
In the case of QSEL, the growth estimate is reported as < -0.25.
With VQPHPSCAPITVGLDAVLQI the growth estimate was < -0.25.
In the case of GNDFRGGRCRG, the growth estimate is reported as < -0.25.
VKSVESLG was tested, and the growth estimate was < -0.25.
RSR was tested, and the growth estimate was < -0.25.
In the case of SIFKSTMSEIRVGVIRSVLE, the growth estimate is reported as < -0.25.
In the case of GLMCKTWDTLSRVTVLLDGT, the growth estimate is reported as < -0.25.
For RNHHGLAVRTLQDLDAHRHA, the growth estimate was < -0.25.
With PSSA the growth estimate was < -0.25.
For HMGYASKLANNGTVSHAEAE, the growth estimate was < -0.25.
With QRGEETVRPNWPHAELTSVP the growth estimate was < -0.25.
With DFRIFPGSSSARRLLLNDAI the growth estimate was < -0.25.
KIRGTSCVIKPVCANPASPA was tested, and the growth estimate was < -0.25.
In the case of GTICGLTTIFLAETRGLSCV, the growth estimate is reported as < -0.25.
In the case of SPLTTARSSGTRTIPL, the growth estimate is reported as < -0.25.
With ADQ the growth estimate was < -0.25.
VGGSQGFCFRASSLYPCGPT was tested, and the growth estimate was < -0.25.
For AQILE, the growth estimate was < -0.25.
In the case of SPYA, the growth estimate is reported as < -0.25.
In the case of ARSVA, the growth estimate is reported as < -0.25.
With TMPSCWRNCRCSGLR the growth estimate was < -0.25.
In the case of QVRFSCGLLTSVLEHIGTRG, the growth estimate is reported as < -0.25.
With GVLDRRSALTAPRINSARDT the growth estimate was < -0.25.
SVAGGSASRISCVASLYLGS was tested, and the growth estimate was < -0.25.
For HTVEVRHCVLSMNIIAGPPN, the growth estimate was < -0.25.
For LSGTGSIG, the growth estimate was < -0.25.
NGTDRISRLNICDL was tested, and the growth estimate was < -0.25.
In the case of AYDAWGRT, the growth estimate is reported as < -0.25.
With RMVQTKGS the growth estimate was < -0.25.
For VVHVVYSITI, the growth estimate was < -0.25.
In the case of GALVKSSERQILFPHAYLPF, the growth estimate is reported as < -0.25.
In the case of VDRRLARYRVHSAQKRRLSS, the growth estimate is reported as < -0.25.
In the case of TFWGTPSGRKNLGRDMSGPI, the growth estimate is reported as < -0.25.
With GSETAS the growth estimate was < -0.25.
In the case of FDGGHTTPNG, the growth estimate is reported as < -0.25.
With RDLVIGCYSAWALGHKVLTP the growth estimate was < -0.25.
With YTCWQPHSR the growth estimate was < -0.25.
In the case of GGCMQENLCL, the growth estimate is reported as < -0.25.
LTRMVSSRTRALPDARVARR was tested, and the growth estimate was < -0.25.
For TQDEPS, the growth estimate was < -0.25.
SVLKRCTYKHIPRLVDLAIC was tested, and the growth estimate was < -0.25.
For QFGSTTFAT, the growth estimate was < -0.25.
In the case of CEDCLEQCAYHSLRNCMRNR, the growth estimate is reported as < -0.25.
With HKPLTVD the growth estimate was < -0.25.
For VRAI, the growth estimate was < -0.25.
With ASQSNMPY the growth estimate was < -0.25.
For MFIGSALRGVDLV, the growth estimate was < -0.25.
For SLSSMSFGEGEFRP, the growth estimate was < -0.25.
With RKVLAQSGHRDLEIRARSPT the growth estimate was < -0.25.
VCIES was tested, and the growth estimate was < -0.25.
In the case of REIHEIATAQGDLKSESSGR, the growth estimate is reported as < -0.25.
For IVVAR, the growth estimate was < -0.25.
For VSTHYVGSWALETPFSVIIA, the growth estimate was -0.183.
In the case of RRWRIPLTGDEMSSLQNCKG, the growth estimate is reported as < -0.25.
With LRYRA the growth estimate was < -0.25.
In the case of LVSLVILLLVRIHLCQSIEY, the growth estimate is reported as < -0.25.
With IKVL the growth estimate was < -0.25.
For FWMTF, the growth estimate was < -0.25.
With RDDDVWEYQLISSGPNARSR the growth estimate was < -0.25.
With VIIGTSLRANV the growth estimate was -0.245.
For CVVCRGPNDCHELCMRGTLR, the growth estimate was < -0.25.
In the case of IGAICDHVALSNFRGAHCMS, the growth estimate is reported as < -0.25.
RLFLTLKGGIV was tested, and the growth estimate was < -0.25.
SILLGVAISRAK was tested, and the growth estimate was < -0.25.
PNVAKSVRDHLAILG was tested, and the growth estimate was < -0.25.
With PAIE the growth estimate was < -0.25.
In the case of PPVIAKPSRG, the growth estimate is reported as < -0.25.
For LFPMG, the growth estimate was < -0.25.
With AATTLRWGLTQRSRRLGTAG the growth estimate was < -0.25.
CLV was tested, and the growth estimate was < -0.25.
For ASRNVKVRGNM, the growth estimate was < -0.25.
LDLDPQP was tested, and the growth estimate was < -0.25.
SPTARQRLMTRSDLGITNRP was tested, and the growth estimate was < -0.25.
For DRRAGRVSVLSNDGGLLPAS, the growth estimate was < -0.25.
HRSDSINSR was tested, and the growth estimate was < -0.25.
In the case of RVTARTLCLR, the growth estimate is reported as < -0.25.
For PVE, the growth estimate was < -0.25.
PGTVRRPKRGRGGTTPTCIG was tested, and the growth estimate was < -0.25.
CDIGLASSLAPA was tested, and the growth estimate was < -0.25.
For GFPLRVERRLSELARSSHHR, the growth estimate was < -0.25.
GQGAEE was tested, and the growth estimate was < -0.25.
For SARRKPVVTLKVRVKAL, the growth estimate was < -0.25.
With GLRGSRDYVDQKSGLPNIIG the growth estimate was < -0.25.
For RRHGATYSLRAQIG, the growth estimate was < -0.25.
In the case of TAF, the growth estimate is reported as < -0.25.
With AERWEL the growth estimate was < -0.25.
With RLKHKNRLARRKSLPDRCHC the growth estimate was < -0.25.
GKSPSVHRTILFPTARGVLL was tested, and the growth estimate was < -0.25.
With RCLGGPNSRGRTSVAGRIPR the growth estimate was < -0.25.
In the case of VARGFALTRRIYVT, the growth estimate is reported as < -0.25.
For CRLRMGLGLMLVPITSSIGI, the growth estimate was < -0.25.
LQMA was tested, and the growth estimate was < -0.25.
In the case of RFADPKRILSNSDTDGVVYV, the growth estimate is reported as < -0.25.
For PWVLGRLGSRQHSN, the growth estimate was < -0.25.
With LERIFENRWPLIARCAKRGG the growth estimate was -0.243.
With TDIQHGRADTTFSLA the growth estimate was < -0.25.
MGATGSPGFGNSVSKLQDYI was tested, and the growth estimate was < -0.25.
In the case of RRDRMVDPDCLESSRCTRSR, the growth estimate is reported as < -0.25.
For RNAAKSDRLPIHLQWYRRAP, the growth estimate was < -0.25.
For RQYPRFLCYVFASWPFRG, the growth estimate was < -0.25.
In the case of GEHELLFEVFFGWGCFVKSC, the growth estimate is reported as < -0.25.
With RFRSQGSPWALVHVKFYSPA the growth estimate was < -0.25.
In the case of VRMRTGMGKKGGRSEDSCVT, the growth estimate is reported as < -0.25.
For DCTSCGS, the growth estimate was < -0.25.
GDGMSCRFTQRKTLHAQVRA was tested, and the growth estimate was < -0.25.
In the case of AESREPRCDCPTTRSRYGA, the growth estimate is reported as < -0.25.
For LHSFRTSQLPET, the growth estimate was < -0.25.
LPRP was tested, and the growth estimate was < -0.25.
With ERGSWGGLQTTDFPGHDVLR the growth estimate was < -0.25.
